Patent US10280399B2, “Method for differentiation of neural stem cells, neurons and GABAergic neurons from mesenchymal stem cells” (SNU R&DB Foundation, priority 2016, dated 2019)
At least one structure is not confirmed: it was looked up by name or label, or the drawing left a doubt.

Tested on: induced GABAergic neurons
Assay: Electrophysiological recording of spontaneous inhibitory post-synaptic current
Assay type: cell-based, human
Settings: 10M bicuculline, in presence of glutamic acid receptor blocking agent (50M APV and 20M CNQX)

With CN1CCc2cc3c(cc2[C@H]1[C@@H]1OC(=O)c2c1ccc1c2OCO1)OCO3 [bicuculline] the “spontaneously inhibitory post-synaptic current (IPSC)” value was “disappeared”.
